Starred links: 1 amine or outer side, 2 acyl side, 3 side chain; linkers in the order of their positions; H or OH if unused. Non-standard residues stand in square brackets, D forms with d. Groups on a side chain read outwards from the residue. *: point of attachment. NH(CH2CH2O)2(CH2)6Cl = ClCCCCCCOCCOCCN*; NMeY = CN[C@@H](Cc1ccc(O)cc1)C(=O)O; Hpla = O=C(O)[C@@H](O)Cc1ccc(O)cc1; Hica(2S) = CC(C)C[C@H](O)C(=O)O; NMeL = CN[C@@H](CC(C)C)C(=O)O; dHica = CC(C)C[C@@H](O)C(=O)O; dNMeL = CN[C@H](CC(C)C)C(=O)O; Suc = O=C(CCC(=O)[*:2])[*:1]
experiment: peptide synthesis; settings: whole synthesis

Substance	final purity (method not given) [%]
cyclo([dA][dP][dL][dV][dA][dP][dNMeL][dV]) (SMILES CC(C)C[C@@H]1C(=O)N[C@H](C(C)C)C(=O)N[C@H](C)C(=O)N2CCC[C@@H]2C(=O)N[C@H](CC(C)C)C(=O)N[C@H](C(C)C)C(=O)N[C@H](C)C(=O)N2CCC[C@@H]2C(=O)N1C)	92
cyclo([dA][dP][dNMeL][dV][dA][dP][dHica][dV]) (SMILES CC(C)C[C@@H]1C(=O)N[C@H](C(C)C)C(=O)N[C@H](C)C(=O)N2CCC[C@@H]2C(=O)O[C@H](CC(C)C)C(=O)N[C@H](C(C)C)C(=O)N[C@H](C)C(=O)N2CCC[C@@H]2C(=O)N1C)	96

experiment: general procedure: Fmoc solid-phase peptide synthesis; 2-chlorotrityl chloride resin (1.6 mmol/g); HATU/DIPEA (manual); COMU (Syro I); DIC/DMAP for ester bonds; PyAOP/HOAt/DIPEA f; settings: conjugation step, UPLC (LC purity); UPLC-MS for 8-mer and 9-mer

Substance	final purity (method not given) [%]
cyclo(K([Suc-NH(CH2CH2O)2(CH2)6Cl])[dL]LL[dP]Y) (SMILES CC(C)C[C@@H]1NC(=O)[C@@H](CC(C)C)NC(=O)[C@H](CCCCNC(=O)CCC(=O)NCCOCCOCCCCCCCl)NC(=O)[C@H](Cc2ccc(O)cc2)NC(=O)[C@H]2CCCN2C(=O)[C@H](CC(C)C)NC1=O)	> 99
cyclo(K([Suc-NH(CH2CH2O)2(CH2)6Cl])[dL]LL[dP][Hpla]) (SMILES CC(C)C[C@@H]1NC(=O)[C@@H](CC(C)C)NC(=O)[C@H](CCCCNC(=O)CCC(=O)NCCOCCOCCCCCCCl)NC(=O)[C@H](Cc2ccc(O)cc2)OC(=O)[C@H]2CCCN2C(=O)[C@H](CC(C)C)NC1=O)	98

same assay, conditions: whole synthesis, UPLC (LC purity); UPLC-MS for 8-mer and 9-mer, scale 100 µmol

Substance	final purity (method not given) [%]
cyclo(L[dP]L[dV][NMeL][dP]L[dV]) (SMILES CC(C)C[C@@H]1NC(=O)[C@H]2CCCN2C(=O)[C@H](CC(C)C)NC(=O)[C@@H](C(C)C)NC(=O)[C@H](CC(C)C)NC(=O)[C@H]2CCCN2C(=O)[C@H](CC(C)C)N(C)C(=O)[C@@H](C(C)C)NC1=O)	95

same assay, conditions: whole synthesis, UPLC (LC purity); UPLC-MS for 8-mer and 9-mer, scale of the general procedure 20 mg resin, 32 µmol (6-mers), 100 µmol (8-mer and 9-mer)

Substance	final HPLC purity [%]	final purity (method not given) [%]
cyclo(FK[dL]LL[dP]) (SMILES CC(C)C[C@@H]1NC(=O)[C@@H](CC(C)C)NC(=O)[C@H](CCCCN)NC(=O)[C@H](Cc2ccccc2)NC(=O)[C@H]2CCCN2C(=O)[C@H](CC(C)C)NC1=O)	94	
cyclo(FS[dL]LL[dP]) (SMILES CC(C)C[C@@H]1NC(=O)[C@@H](CC(C)C)NC(=O)[C@H](CO)NC(=O)[C@H](Cc2ccccc2)NC(=O)[C@H]2CCCN2C(=O)[C@H](CC(C)C)NC1=O)	> 99	
cyclo(LL[dP]YL[dHica]) (SMILES CC(C)C[C@@H]1NC(=O)[C@@H](CC(C)C)OC(=O)[C@H](CC(C)C)NC(=O)[C@H](Cc2ccc(O)cc2)NC(=O)[C@H]2CCCN2C(=O)[C@H](CC(C)C)NC1=O)		> 99
cyclo(LL[dP]YL[dL])	96	
cyclo(LL[dP]Y[Hica(2S)][dL]) (SMILES CC(C)C[C@@H]1NC(=O)[C@@H](CC(C)C)NC(=O)[C@H](CC(C)C)OC(=O)[C@H](Cc2ccc(O)cc2)NC(=O)[C@H]2CCCN2C(=O)[C@H](CC(C)C)NC1=O)		> 99
cyclo(LL[dP]Y[NMeL][dL]) (SMILES CC(C)C[C@@H]1NC(=O)[C@@H](CC(C)C)NC(=O)[C@H](CC(C)C)N(C)C(=O)[C@H](Cc2ccc(O)cc2)NC(=O)[C@H]2CCCN2C(=O)[C@H](CC(C)C)NC1=O)		> 99
cyclo(LL[dP][Hpla]L[dL]) (SMILES CC(C)C[C@@H]1NC(=O)[C@H](Cc2ccc(O)cc2)OC(=O)[C@H]2CCCN2C(=O)[C@H](CC(C)C)NC(=O)[C@H](CC(C)C)NC(=O)[C@@H](CC(C)C)NC1=O)		87
cyclo(LL[dP][NMeY]L[dL]) (SMILES CC(C)C[C@@H]1NC(=O)[C@@H](CC(C)C)NC(=O)[C@H](CC(C)C)NC(=O)[C@H](Cc2ccc(O)cc2)N(C)C(=O)[C@H]2CCCN2C(=O)[C@H](CC(C)C)NC1=O)		> 99
cyclo(L[NMeL][dP]YL[dL]) (SMILES CC(C)C[C@@H]1NC(=O)[C@H](Cc2ccc(O)cc2)NC(=O)[C@H]2CCCN2C(=O)[C@H](CC(C)C)N(C)C(=O)[C@H](CC(C)C)NC(=O)[C@@H](CC(C)C)NC1=O)		98
cyclo(L[dL]L[Hica(2S)][dP]Y) (SMILES CC(C)C[C@@H]1NC(=O)[C@H](Cc2ccc(O)cc2)NC(=O)[C@H]2CCCN2C(=O)[C@H](CC(C)C)OC(=O)[C@H](CC(C)C)NC(=O)[C@@H](CC(C)C)NC1=O)		> 99
cyclo(L[dL][Hica(2S)]L[dP]Y) (SMILES CC(C)C[C@@H]1NC(=O)[C@H](Cc2ccc(O)cc2)NC(=O)[C@H]2CCCN2C(=O)[C@H](CC(C)C)NC(=O)[C@H](CC(C)C)OC(=O)[C@@H](CC(C)C)NC1=O)		> 99
cyclo(L[dL][NMeL]L[dP]Y) (SMILES CC(C)C[C@@H]1NC(=O)[C@H](Cc2ccc(O)cc2)NC(=O)[C@H]2CCCN2C(=O)[C@H](CC(C)C)NC(=O)[C@H](CC(C)C)N(C)C(=O)[C@@H](CC(C)C)NC1=O)		> 99
cyclo(L[dV][NMeL][dP]L[dV][Hica(2S)][dP]) (SMILES CC(C)C[C@@H]1NC(=O)[C@H]2CCCN2C(=O)[C@H](CC(C)C)OC(=O)[C@@H](C(C)C)NC(=O)[C@H](CC(C)C)NC(=O)[C@H]2CCCN2C(=O)[C@H](CC(C)C)N(C)C(=O)[C@@H](C(C)C)NC1=O)		> 99
cyclo(L[dV][NMeL][dP]L[dV][NMeL][dP])		97
cyclo(YL[dNMeL]LL[dP])		> 99

Source: paper PMC10023679 (Nature Communications, 2023)
